Laboratory results reported in PubChem BioAssay AID743255 (National Center for Advancing Translational Sciences (NCATS), 2014).
Screen size: about 390,000 compounds; about 910 (0.23%) were called active. Inconclusive results, whose numbers are uncertain, are shown with a selection of clear calls. The call rests on the fitted dose curve; in most records, active means well fitted inhibition curve with a large enough effect; inconclusive means small, poorly fitted or top-dose-only effect; inactive means no such curve, though single readings can be large or run the other way. Potencies of inconclusive entries are doubtful fits and often do not repeat.

Chains of the proteins cited; added tags and fusions are not shown. Lines headed by an entry give the natural chain unless they say otherwise; changes in a name come on top.
UniProt O94782: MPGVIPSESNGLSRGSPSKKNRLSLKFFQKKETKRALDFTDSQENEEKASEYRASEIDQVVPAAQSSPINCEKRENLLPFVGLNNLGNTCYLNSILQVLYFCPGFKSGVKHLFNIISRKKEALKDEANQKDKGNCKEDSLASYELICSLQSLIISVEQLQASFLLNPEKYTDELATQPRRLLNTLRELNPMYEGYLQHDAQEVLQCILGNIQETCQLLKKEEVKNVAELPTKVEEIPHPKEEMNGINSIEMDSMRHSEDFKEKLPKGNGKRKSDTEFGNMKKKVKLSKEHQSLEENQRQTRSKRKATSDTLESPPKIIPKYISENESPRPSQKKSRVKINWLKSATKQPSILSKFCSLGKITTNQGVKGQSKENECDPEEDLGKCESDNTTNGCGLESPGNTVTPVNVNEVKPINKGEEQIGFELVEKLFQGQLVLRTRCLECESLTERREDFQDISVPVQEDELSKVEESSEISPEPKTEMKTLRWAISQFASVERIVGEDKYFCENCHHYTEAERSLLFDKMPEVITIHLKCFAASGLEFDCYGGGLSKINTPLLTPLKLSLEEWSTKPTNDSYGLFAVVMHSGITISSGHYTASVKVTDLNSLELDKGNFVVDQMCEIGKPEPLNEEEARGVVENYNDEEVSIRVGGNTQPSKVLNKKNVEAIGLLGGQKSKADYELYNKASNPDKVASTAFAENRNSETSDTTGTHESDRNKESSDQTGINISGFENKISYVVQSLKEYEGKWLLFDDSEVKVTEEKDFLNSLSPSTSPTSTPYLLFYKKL

Target: Ubiquitin carboxyl-terminal hydrolase 1 (Homo sapiens) (UniProt O94782)
Assay: Inhibitors of USP1/UAF1: Primary Screen; further: nearly all actives have a fitted effect of over 60% in size
Conditions: recombinant USP1/UAF1, Ub-Rhodamine cleavage fluorescence; activity change, negative = inhibition: at 57.1 µM (top of the series)
Outline: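 USP1/UAF1 complex (1 nM) preincubated 15 min at room temperature with compound, then Ub-Rho substrate (150 nM final) added. Kinetic fluorescence at 480/540 nm over 6 reads at 60 s intervals; 50 mM HEPES pH 7.8, 0.5 mM EDTA, 0.1 mg/ml BSA, 1 mM TCEP, 0.01% Tween-20.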
On the % scale 0 is the no-effect control and ±100 the full control effect; potency means the concentration at half of the fitted maximal effect.

Row | SMILES | Potency | activity change, negative = inhibition
1 | O=C1NC(Cc2ccc(O)cc2)c2nc3ccccc3c(=O)n2-c2ncccc21 (stereo unspecified) | inconclusive: 0.282 µM [inhibitor, full curve] | –
2 | CC1=C(C(=O)N2CCOCC2)CC(CC(=O)NCc2cccc3ccccc23)C(=O)N1Cc1ccccc1 (stereo unspecified) | inconclusive: 44.7 µM [inhibitor, partial curve, poor fit] | –
3 | O=C(OCc1nc2ccccc2s1)c1ccccc1O | inconclusive: 0.282 µM [inhibitor, full curve, poor fit] | –
4 | CCN(CC)S(=O)(=O)c1ccc(N2CCN(C)CC2)c(NC(=O)COc2ccc(F)cc2Cl)c1 | inconclusive: 44.7 µM [inhibitor, partial curve] | –
5 | O=C(COc1cccc2ccccc12)N/N=C/c1ccccc1OCc1ccc(C(=O)O)cc1 | inconclusive: 39.8 µM [inhibitor, partial curve, poor fit] | –
6 | O=C(Cc1ccccc1)NCc1n[nH]c(=S)n1-c1ccccc1 | – | inactive: -15.8%
7 | COc1ccc(S(=O)(=O)Nc2cccc(C)c2C)c2cccnc12 | inconclusive: 39.8 µM [inhibitor, single point] | –
8 | Cc1ccc2nc(NC(=O)C(NS(=O)(=O)c3cccc4nsnc34)C(C)C)sc2c1 (stereo unspecified) | inconclusive: 44.7 µM [inhibitor, partial curve, poor fit] | –
9 | CCc1ccc(S(=O)(=O)Nc2ccc3oc(C)c(C(=O)OCCOC)c3c2)cc1 | inconclusive: 8.91 µM [inhibitor, partial curve, poor fit] | –
10 | CN1C(=O)NC(c2ccccc2[N+](=O)[O-])C2=C1CCCC2=O (stereo unspecified) | inconclusive: 28.2 µM [inhibitor, partial curve] | –
11 | Cc1ccc(/C=c2\s/c(=C(/C#N)C(=O)N3CCCC3)n(Cc3ccco3)c2=O)s1 | – | inactive: -4.08%
12 | CCCCN(CC)C(=O)Cn1cc2c(n1)-c1c(oc(C(=O)N3CCCC3)c1C)CC2 | inconclusive: 31.6 µM [inhibitor, partial curve, poor fit] | –
13 | CCC(=O)N(C1=C(NC(C)C)C(=O)c2ccccc2C1=O)C(C)C | inconclusive: 28.2 µM [inhibitor, single point] | –
14 | Cc1cc(NCc2ccccn2)n2c(nc3ccccc32)c1C#N | – | inconclusive: -27.6% [inhibitor]
15 | CN1CCCC(CC2c3ccccc3Sc3ccccc32)C1 (stereo unspecified) | – | inactive: -18.6%
16 | O=c1[nH]cc(CCCc2ccccc2)c(=O)[nH]1 | inconclusive: 3.98 µM [inhibitor, partial curve] | –
17 | CC1CCCN(C(=O)CNC(=O)Cn2ccc3ccccc3c2=O)C1 (stereo unspecified) | inconclusive: 2 µM [inhibitor, full curve, poor fit] | –
18 | O=C(O)c1ccccc1NS(=O)(=O)c1ccc(NN=Cc2cccc(Cl)c2)c([N+](=O)[O-])c1 | inconclusive: 44.7 µM [inhibitor, partial curve] | –
19 | CCC(C)(C)NC(=O)C(c1ccc(C)cc1)N(CC1CCCO1)C(=O)CCC(=O)Nc1ccccn1 (stereo unspecified) | inconclusive: 6.31 µM [inhibitor, single point] | –
20 | CCOC(=O)c1cccc(NC(=O)NC2COc3ccccc3C2)c1 (stereo unspecified) | – | inactive: 3.6%
21 | Cc1ccc(CNC(=O)Cn2ncc3c([nH]c4ccc(C)cc43)c2=O)cc1 | inconclusive: 7.94 µM [inhibitor, partial curve, poor fit] | –

Structures shown so far containing a nitro group on carbon:
Row | SMILES | Potency | activity change, negative = inhibition
10 | CN1C(=O)NC(c2ccccc2[N+](=O)[O-])C2=C1CCCC2=O (stereo unspecified) | inconclusive: 28.2 µM [inhibitor, partial curve] | –
18 | O=C(O)c1ccccc1NS(=O)(=O)c1ccc(NN=Cc2cccc(Cl)c2)c([N+](=O)[O-])c1 | inconclusive: 44.7 µM [inhibitor, partial curve] | –

Going on with the list:

Row | SMILES | Potency | activity change, negative = inhibition
22 | CC(=O)Nc1ccc(NC2=Nc3ccccc3N3C2=Nc2c(c(C)nn2-c2ccccc2)C3c2ccccc2)cc1 (stereo unspecified) | inconclusive: 25.1 µM [inhibitor, partial curve] | –
23 | COc1cc(C(=O)NCCCN2CCCC2=O)ccc1OCc1ccc(Cl)cc1Cl | inconclusive: 0.398 µM [inhibitor, full curve] | –
24 | S=C(Nc1ccccc1)Nc1nccs1 | inconclusive: 39.8 µM [inhibitor, partial curve, poor fit] | –
25 | CCOc1ccc(C(=O)Nc2ccc(C(=O)OCc3cc(=O)n4ccsc4n3)cc2)cc1 | inconclusive: 4.47 µM [inhibitor, single point] | –
26 | Cc1cc(C)c(S(=O)(=O)c2ccccc2C)c(SCC(C)C)n1 | – | inactive: -26.1%
27 | CCN(C(=O)CCNC(=O)Cn1cnc2ccccc2c1=O)c1cccc(Cl)c1 | inconclusive: 398 µM [inhibitor, partial curve, poor fit] | –
28 | Cc1nn(-c2ccccc2)c(OC(=O)c2ccc(F)cc2)c1S(=O)(=O)c1ccccc1 | inconclusive: 44.7 µM [inhibitor, partial curve, poor fit] | –
29 | COc1ccc(/C=C(\C#N)c2c[nH]c3ccccc23)cc1 | inconclusive: 35.5 µM [inhibitor, partial curve] | –
30 | Cc1ccc(/C=C2\NC(=S)NC2=O)cc1[N+](=O)[O-] | – | inactive: -21.1%
31 | COc1cc(/C=C2\CC/C(=C\c3ccc(OCCO)c(OC)c3)C2=O)ccc1OCCO | inconclusive: 3.98 µM [inhibitor, full curve] | –
32 | C[n+]1cccc2cccc([O-])c21 | active: 6.31 µM | –
33 | CCCc1cc(=O)[nH]c(SCc2nc(-c3ccc(C)cc3)no2)n1 | inconclusive: 56.2 µM [inhibitor, single point] | –
34 | C[C@H](CO)N1C[C@H](C)[C@@H](CN(C)Cc2ccc(Cl)c(Cl)c2)Oc2c(NS(=O)(=O)c3cccs3)cccc2C1=O | inconclusive: 44.7 µM [inhibitor, partial curve, poor fit] | –
35 | O=S(=O)(c1ccc(Br)cc1)c1nnn2c1nc(Nc1cccc(C(F)(F)F)c1)c1sccc12 | inconclusive: 89.1 µM [inhibitor, partial curve, poor fit] | –
36 | O=C(NCCO)c1nc(C(=O)c2ccc(Cl)cc2)c2ccccc2n1 | inconclusive: 11.2 µM [inhibitor, partial curve] | –
37 | COC(=O)c1c(C)sc(-c2c(-c3ccc4c(c3)OCCO4)[nH]c3[nH]c(=O)[nH]c(=O)c23)c1O | – | inactive: -22.5%
38 | S=C(Nc1cccnc1)Nc1cccc2cnccc12 | inconclusive: 7.08 µM [inhibitor, full curve, poor fit] | –
39 | COC(=O)c1ccccc1NC(=O)CSc1nc(N)cc(=O)[nH]1 | inconclusive: 50.1 µM [inhibitor, partial curve, poor fit] | –
40 | CC1CCN(C(=O)c2nc[nH]c2C(=O)N2CCc3ccccc3C2)CC1 | inconclusive: 1.26 µM [inhibitor, full curve, poor fit] | –
41 | COC(=O)c1c(C)oc2ccc(NS(=O)(=O)c3cccs3)cc12 | inconclusive: 44.7 µM [inhibitor, partial curve, poor fit] | –
42 | COc1cccc(C(=O)OCC(=O)Nc2cc(C)on2)c1OC | inconclusive: 17.8 µM [inhibitor, partial curve] | –

Row | SMILES | Potency | activity change, negative = inhibition
43 | CN1CCC[C@H]1CCNc1ccc2c(=O)c3ccccc3n(C)c2c1 | inconclusive: 44.7 µM [inhibitor, partial curve, poor fit] | –
44 | CCC(C)n1c(SCc2ccc(C(C)(C)C)cc2)nc2ccsc2c1=O (stereo unspecified) | – | inactive: -19.4%
45 | CCC(=O)OCCNc1cc(SCCC(=O)OC)c2nonc2c1[N+](=O)[O-] | – | inactive: -9.57%
46 | COc1ccc(C2CC(=O)c3c(C)nc(N4CCN(C=O)CC4)nc3C2)c(OC)c1 (stereo unspecified) | inconclusive: 8.91 µM [inhibitor, full curve, poor fit] | –
47 | C=C1C(=O)c2sccc2C(c2ccc(OC)c(OC)c2)C1COC(C)=O (stereo unspecified) | inconclusive: 31.6 µM [inhibitor, partial curve] | –
48 | CCn1c(=O)sc2cc(NC(=O)c3cccc(OC)c3)ccc21 | inconclusive: 35.5 µM [inhibitor, partial curve] | –
49 | COc1ccc(-c2nn(-c3ccccc3)cc2C(=O)NC(=S)NNC(=O)c2ccncc2)cc1 | inconclusive: 44.7 µM [inhibitor, partial curve] | –
50 | COc1ccccc1N/N=C/c1c(CO)cnc(C)c1O | inconclusive: 0.562 µM [inhibitor, full curve, poor fit] | –
51 | CNCCCOc1ccc(C)cc1OC | inconclusive: 0.251 µM [inhibitor, full curve, poor fit] | –
52 | COc1ccc(-c2ccc(CN3C(C)C(=O)N(Cc4cn(CCC5OCCO5)nn4)CCS3(=O)=O)cc2)cn1 (stereo unspecified) | – | inactive: -19.6%
53 | Cc1cccc(OCC(=O)OCc2cc(=O)n3nc(-c4cccs4)sc3n2)c1 | inconclusive: 39.8 µM [inhibitor, partial curve] | –
54 | O=C(C1CC1)N1CCc2cc(Br)cc(S(=O)(=O)N3CCN(c4cccc(Cl)c4)CC3)c21 | inconclusive: 0.282 µM [inhibitor, full curve, poor fit] | –
55 | CCOc1ccc(Nc2ncnc3c2cnn3-c2ccccc2)cc1 | inconclusive: 0.708 µM [inhibitor, full curve] | –
56 | Cn1c(=O)c2c(SCC(=O)NCC3CCCO3)nc(-c3cccc(F)c3)nc2n(C)c1=O (stereo unspecified) | inconclusive: 50.1 µM [inhibitor, single point] | –
57 | NNC(=O)c1ccc2[nH]c3c(c2c1)CCCC3 | inconclusive: 50.1 µM [inhibitor, partial curve, poor fit] | –
58 | Cc1ccc(OCC(=O)Nc2cc(-c3nc4ccccc4[nH]3)ccc2C)c(C)c1 | inconclusive: 39.8 µM [inhibitor, partial curve, poor fit] | –
59 | Cc1cc2ccccc2n1CCNC(=O)c1ccc(S(=O)(=O)N2CCCCC2)cc1 | – | inactive: -22.9%
60 | CN1C(=O)C(C)(C)c2cc(S(=O)(=O)N3CCN(c4ccccc4F)CC3)ccc21 | – | inactive: -6.57%
61 | CCCCCCCCCCC[C@@H](C[C@@H]1OC(=O)[C@H]1CCCCCC)OC(=O)[C@H](CC(C)C)NC=O | inconclusive: 56.2 µM [inhibitor, partial curve, poor fit] | –
